# According to patent EP4831169A1, “NOVEL COMPOUND USED AS CBP/P300 INHIBITOR, AND PHARMACEUTICAL COMPOSITION FOR PREVENTING OR TREATING CANCER, INFLAMMATORY DISORDERS, OR AUTOIMMUNE DISEASES COMPRISING SAME AS ACTIVE INGREDIENT” (dated 2026):
# Sequences of proteins named here, by UniProt entry; tags and fusion partners are left off. Residues count along the entry.
# UniProt Q92793, 1085-1192 limits assumed: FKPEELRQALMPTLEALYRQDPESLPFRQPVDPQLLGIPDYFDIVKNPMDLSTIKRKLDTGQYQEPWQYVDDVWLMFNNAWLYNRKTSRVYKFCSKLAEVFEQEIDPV
# The structures given here were assigned with low confidence; some may be wrong.
# Key:
# [1] = target: CBP BRD protein (Homo sapiens, UniProt Q92793); test: CBP bromodomain TR-FRET inhibitory activity assay; details: read-out: CBP BRD IC50, Table 3
# Procedure: A time resolved fluorescence resonance energy transfer (TR-FRET) experiment was used to verify the activity of CBP bromodomain.
# (§1) The assay was performed in a final volume of 14 µL, optimized based on a CREBBP time resolved fluorescence resonance energy transfer (TR-FRET) assay kit (BPS Bioscience, cat. 32619) to maximize an assay window, and performed in a final volume of 14 µL, while maximizing the assay window. A TR-FRET fluorescence acceptor and a Tb donor were diluted in an assay buffer containing 2-[4-(2-hydroxyethyl)piperazin-1-yl]ethanesulfonic acid (HEPES) (hereafter, referred to as an assay buffer, BPS Bioscience, cat. 33012), and 3 µL of each solution was transferred to all wells of a white 384-low-volume well plate (Corning, cat. 4513). 2 µL of 4X Ac-H4 peptide (final concentration 85 nM) was transferred to high control wells and test wells. Each compound was prepared at 10 concentration points by serially diluting 3-fold from the highest concentration in a dimethyl sulfoxide solvent. […] The TR-FRET signal was measured using an EnVision Multilabel plate reader (PerkinElmer; Mirror LNACE/DELFIA Dual/Bias). […] IC50 analysis was determined by standard 4 parameter curve fitting according to an algorithm using GraphPad Prism 7.0 (GraphPad Software Inc., La Jolla, CA, USA). All data are expressed as mean ± standard error of the mean (SEM).
# [2] = target: BRD4 (BD1) protein (Homo sapiens, UniProt O60885); test: BRD4 bromodomain TR-FRET inhibitory activity assay; details: read-out: BRD4 (BD1) IC50, Table 4
# Procedure: BRD inhibitory activity was measured using a time resolved fluorescence resonance energy transfer (TR-FRET) experiment to verify the activity of BRD4 bromodomain.
# as §1, with “32613)” for “32619)”, “15” for “85”, “sulfoxide (DMSO)” for “sulfoxide”
structure (smiles),measurement,setting,value
Cn1cc(-c2cc3nc(C(C)(C)C)n(-c4cc(OCC5CCC(C)(O)CC5)c5c(c4)n(C)c(=O)n5C)c3cc2F)cn1 (centres unmarked),IC50,[1],< 500 nM
same,IC50,[2],> 5 µM
